The target in assay [1] is MIO1-nYFP (M. truncatula). The assay can be described thus: split reporter; BiFC: N-terminal YFP and C-terminal YFP fusions co-infiltrated 1:1 by A. tumefaciens into tobacco leaves; fluorescence at 48 h by confocal microscopy.
Assay [2] addresses WD40 repeat domain of MIO1/SLB1, yeast two-hybrid bait (M. truncatula). The assay can be described thus: two-hybrid; bait in pGBKT7 and prey in pGADT7 co-transformed into Y2H Gold yeast; grown on SD/-Leu-Trp three days at 30 °C; interaction detected on SD/-Ade/-His/-Leu/-Trp.

Results are given in words; binding and its absence hold for the method and conditions named. A result given as binding can be weak or reduced; the word gives no strength. For some assays here: In cells and extracts the contact can be indirect. For some assays here: Tags and fused reporters may be left off the sequences shown.

B1: BS1-cYFP (protein, UniProt A0A190V5K9 1-330)
chain: MNGGSTVSFRSILDRPLNQLTEDDISQLTREDCRRFLKDKGMRRPSWNKSQAIQQVISLKALLEPTDDDIPATVGVGVSSAIHHHHHHHPPQPPPKALDPEDTALELQKSTSPVAERPTETNDANVVNNPGGCAPSGSFGQMTIFYCGKVNVYDGVSPDKARSIMQLAAACPSSFPQDNPSNKNAAVWASPCNLPIDKEVLFPTDTAILQVAQTDKMVEYPLQYREKGSTARDADVEGQASRKVSLQRYLEKRKDRGRSKGKKLTGITSSNFEMYLNLPVKLHASNGNSSRSSTDSPPQPRLPLVSSGSAENQPKVTLPIDLNDKDVQEC
Turning to B1, in assay [1], the binding result was “binds”.

B2: BIG SEEDS1 (BS1), yeast two-hybrid prey (protein, UniProt A0A190V5K9 1-330)
chain: B1 chain
With B2, the binding result in assay [2] was “binds”.

The record behind these values is PMC8023213.
